# PubChem BioAssay AID504444 (National Center for Advancing Translational Sciences (NCATS), 2011)
# Hit rate of the full screen: of about 360,000 compounds, about 7,500 (2.1%) were called active. This list was built around the results that the source calls inconclusive (neither active nor inactive); the mix of calls is not that of the screen. Calls come from the whole dose curve; as a rule, active = well fitted inhibition curve with a large enough effect; inconclusive = small, poorly fitted or top-dose-only effect, or effect the other way; inactive = flat fitted curve, though single readings scatter. Where the call is inconclusive, the potency comes from a doubtful curve fit.
# Test: Nrf2 qHTS screen for inhibitors; note: nearly all actives have a fitted effect of over 60% in size
# Conditions: A549 ARE-Fluc reporter, luciferase luminescence, 18-24 h; activity change, negative = inhibition: at 46 µM (top of the series)
# Procedure, shortened: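 Reporter: ARE-Fluc in A549. Exposure: 18-24 h, 37 °C, 5% CO2, 5% FBS OPTI-MEM. Readouts: fluorescent cytotoxicity (CellTiter-Fluor), then luminescent Nrf2 signal after BugLite.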
# % is set by controls: 0 for no effect and ±100 for the full control effect; potency is the fitted concentration of half-maximal effect.
Structure (SMILES),Potency,"activity change, negative = inhibition"
c1ccc(N2CCN(Cc3ccsc3)CC2)nc1,"inconclusive: 3.26 µM [activator, single point]",
CN(C(=O)CSc1ncnc2ccccc12)C1CCCCC1,"inconclusive: 4.11 µM [activator, partial curve, poor fit]",
S=C(NCCc1ccccc1)Nc1ccc(Cl)cc1,,inactive: 8.71%
Cc1oc(-c2cccc(Br)c2)nc1Cn1c(SCc2cccc(F)c2)nc2cccnc21,active: 13 µM,
Cc1ccccc1/C=C\c1nc2ccccc2c(=O)[nH]1,"inconclusive: 20.6 µM [activator, single point]",
COc1cccc(N2CCN(c3nc(C)cc(C)c3C#N)CC2)c1,"inconclusive: 3.66 µM [falling, partial curve]",
Cc1nn(-c2ccccc2)c2c1C(c1ccc([N+](=O)[O-])cc1)N1C(=N2)C(=O)Nc2ccccc21 (stereo not given),"inconclusive: 29.1 µM [falling, single point]",
COc1ccc(/C=N\NC(=O)CCc2c(C)n[nH]c2C)c(OC)c1OC,"inconclusive: 6.51 µM [falling, partial curve]",
Cc1c(C)c2ccc(O)c(CN3CCCC3)c2oc1=O,,inactive: -1.43%
Cc1ccc(S(=O)(=O)CC(=O)N2CCN(c3cccc(C(F)(F)F)c3)CC2)cc1,active: 23.1 µM,
c1ccc(Oc2nc(-c3ccccn3)nc3ccccc23)cc1,"inconclusive: 4.61 µM [activator, partial curve]",
Cc1nc2cc(NC(=O)C3COc4ccccc4O3)ccc2s1 (stereo not given),"inconclusive: 23.1 µM [activator, single point]",
CC1=C(C(=O)OC2CCCCC2)C(c2ccccc2)NC(=O)N1 (stereo not given),"inconclusive: 18.4 µM [falling, single point]",
Cc1c(OC(C)C(=O)NCc2ccncc2)ccc2c3c(c(=O)oc12)CCCC3 (stereo not given),active: 23.1 µM,
O=C(Nc1cccc(Cl)c1)OCc1ccccn1,,inactive: 12.3%
CCC(C)[C@H](N)c1nnc(SCc2ccc(Cl)c(Cl)c2)o1 (stereo not given in full),,inactive: -5.33%
Cc1ccc(CN2C(=O)C3(c4ccccc42)N(c2ccc(C)c(Cl)c2)C(=O)CS3(=O)=O)cc1 (stereo not given),"inconclusive: 29.1 µM [falling, single point]",
COc1ccc2ncnc(NCc3cccs3)c2c1-c1ccc2c(c1)OCO2,"inconclusive: 23.1 µM [falling, partial curve, poor fit]",
CSc1ccccc1OCc1cc(C(=O)N(C)Cc2cnccn2)no1,,inactive: 5.38%
O=C(Nc1nc(-c2ccccc2)cs1)c1ccc(S(=O)(=O)N2CCc3ccccc32)cc1,"inconclusive: 14.6 µM [falling, partial curve]",
CC(C)(C)OC(=O)N(Cc1ccccc1)Cc1cccc(OCc2cccc(NC(=O)C3CC3)c2)c1,active: 25.9 µM,
COc1ccc(-c2ccc(OC)c([C@H]3[C@H]4C=CC[C@@H](C)[C@@H]4C(=O)N3Cc3ccccc3)c2)cc1,"inconclusive: 29.1 µM [falling, single point]",

# 3 compounds already listed, arranged by SMILES length, rising:
Structure (SMILES),Potency,"activity change, negative = inhibition"
CN(C(=O)CSc1ncnc2ccccc12)C1CCCCC1,"inconclusive: 4.11 µM [activator, partial curve, poor fit]",
COc1ccc2ncnc(NCc3cccs3)c2c1-c1ccc2c(c1)OCO2,"inconclusive: 23.1 µM [falling, partial curve, poor fit]",
Cc1nn(-c2ccccc2)c2c1C(c1ccc([N+](=O)[O-])cc1)N1C(=N2)C(=O)Nc2ccccc21 (stereo not given),"inconclusive: 29.1 µM [falling, single point]",

# Next part

Structure (SMILES),Potency,"activity change, negative = inhibition"
CCOC(=O)c1c(NC(=O)CSc2nnc(-c3c[nH]c4ccccc34)n2CCOC)sc2c1CCCC2,"inconclusive: 16.4 µM [falling, partial curve, poor fit]",
COc1ccc(NC(=O)CSc2cn(CCNC(=O)c3ccc(OC)cc3)c3ccccc23)cc1,,inactive: -27.4%
Cc1cc(NC(=O)/C(C#N)=C/c2ccc(-c3ccc(SC(F)F)cc3)o2)n(-c2ccccc2)n1,"inconclusive: 0.366 µM [activator, full curve]",
CCc1nc2sc3c(N4CCCCC4)ncnc3c2c2c1CCCC2,"inconclusive: 0.0046 µM [falling, full curve, poor fit]",
Cc1ccc(C(=O)NC(=S)NNC(=O)c2cccc([N+](=O)[O-])c2)cc1,"inconclusive: 18.4 µM [falling, single point]",
Cc1ccc(NC(=O)COc2ccccc2)c(NC(=O)c2ccccc2C)c1,,inactive: -0.978%
COc1ccc2nc(NC(=O)c3ccc([N+](=O)[O-])o3)sc2c1,"inconclusive: 23.1 µM [activator, partial curve]",
Cc1sc(NC(=O)Nc2ccccc2)c(C(N)=O)c1C,"inconclusive: 10.3 µM [activator, partial curve]",
COC(=O)c1c(NC(=O)C2CCCCC2C(=O)O)sc2c1CCCCC2 (stereo not given),"inconclusive: 5.17 µM [activator, partial curve]",
Cc1ccsc1/C=N/NC(=O)c1ccc(Cn2cc(Br)cn2)o1,"inconclusive: 29.1 µM [falling, single point]",
Cc1ccc(S(=O)(=O)N/N=C\c2ccc([N+](=O)[O-])o2)cc1C,"inconclusive: 23.1 µM [falling, single point]",
C[C@H]1O[C@@H](O[C@H]2[C@@H](O)C[C@H](O[C@H]3[C@@H](O)C[C@H](O[C@H]4CC[C@@]5(C)[C@H](CC[C@@H]6[C@@H]5C[C@@H](O)[C@]5(C)[C@@H](C7=CC(=O)OC7)CC[C@]65O)C4)O[C@@H]3C)O[C@@H]2C)C[C@H](O)[C@@H]1O,active: 0.13 µM,
CC1=C(C(=O)Nc2ccccc2)C(c2ccc(O)cc2)n2nc(-c3ccc(Cl)cc3)nc2N1 (stereo not given),,inactive: -13%
CCc1ccn2cc(-c3cc(-c4ccccc4)no3)nc2c1,"inconclusive: 29.1 µM [falling, single point]",
C=CCn1c(SCc2nc3ccccc3nc2C)nnc1-c1ccoc1C,,inactive: 7.03%
O=C(CCCN1C(=O)/C(=C/c2ccc3c(c2)OCO3)SC1=S)Nc1cccc(C(=O)O)c1,active: 10.3 µM,
CCc1ccc(-c2nc(CS(=O)CC(=O)NC3CCCCCC3)c(C)o2)cc1 (stereo not given),,inactive: -10.3%
Cc1ccc(C2CC(=O)NC(SCc3ccccc3)=C2C#N)cc1 (stereo not given),active: 10.3 µM,
O=C(COC(=O)c1ccccc1[N+](=O)[O-])c1ccc(C2CCCCC2)cc1,"inconclusive: 29.1 µM [falling, single point]",
Cc1ccc(C(=O)Nc2cc([N+](=O)[O-])ccc2C)cc1,"inconclusive: 1.03 µM [activator, full curve]",
CCn1c(CN2CCCCC2)nc2cc(NC(=O)COc3ccc(C(C)(C)C)cc3)ccc21,"inconclusive: 14.6 µM [falling, partial curve]",
Oc1c(CN2CCCCC2)cc(COCc2ccccc2)c2cccnc12,"inconclusive: 20.6 µM [falling, single point]",

Structure (SMILES),Potency,"activity change, negative = inhibition"
CCOC(=O)C1(Cc2ccc(Cl)cc2)CCN(Cc2nccn2CC)CC1,,inactive: -10.1%
O=C(CNC(=O)c1ccccc1F)Nc1ccc2c(c1)OCO2,"inconclusive: 10.3 µM [activator, partial curve]",
CCCCN(Cc1cc2cc(OC)ccc2[nH]c1=O)S(=O)(=O)c1ccc(C)cc1,"inconclusive: 20.6 µM [falling, single point]",
CSc1nnc(C2CCN(CC(=O)Nc3ccccc3N3CCOCC3)CC2)n1C(C)C,"inconclusive: 29.1 µM [activator, single point]",
COc1ccc2c(c1)NC(c1ccc(F)cc1)=NC(c1ccc(F)cc1)=N2,"inconclusive: 29.1 µM [activator, partial curve, poor fit]",
C[C@H]1NC(=O)[C@@]2(C)[C@@H](c3ccccc3)[C@H]3COc4ccccc4[C@H]3N2C1=O,"inconclusive: 2.31 µM [falling, partial curve, poor fit]",
CCNC(=S)NNC(=O)c1cc(-c2cccnc2)nc2ccccc12,"inconclusive: 2.59 µM [falling, partial curve, poor fit]",
Cc1cc(C(=O)COC(=O)c2ccc(O)cc2O)c(C)n1C(C)C,"inconclusive: 14.6 µM [activator, partial curve, poor fit]",
CC1(C)N=C(Nc2nc3ccccc3o2)NC2=C1C(=O)CCC2,"inconclusive: 16.4 µM [falling, partial curve, poor fit]",
CCOC(=O)c1cccc(NS(=O)(=O)c2cc(Br)cc3c2N(C(=O)C2CC2)CC3)c1,,inactive: 1.43% [at 9.27 µM]
CCN(CC)C(=O)c1cc(-c2ccccc2OC)on1,,inactive: 3.53%
CCOc1cc(/C=C/C(=O)O)ccc1OCCOc1ccc(F)cc1,"inconclusive: 29.1 µM [falling, single point]",
Cc1ccc(NC(=O)CNC(=O)c2ccco2)c(Cl)c1,"inconclusive: 20.6 µM [activator, single point]",
FC(F)(F)COc1ccc(-n2ccnc2)nn1,"inconclusive: 1.64 µM [activator, partial curve, poor fit]",
Cc1noc(NS(=O)(=O)c2ccc(N3Cc4ccccc4C3=O)cc2)c1C,"inconclusive: 29.1 µM [activator, single point]",
O=C(CCCN1C(=O)/C(=C/c2ccccc2Cl)SC1=S)Nc1cccnc1,"inconclusive: 29.1 µM [falling, single point]",
NC(=O)CSc1nc2scc(-c3ccco3)c2c(=O)n1-c1ccccc1,"inconclusive: 6.51 µM [activator, partial curve, poor fit]",
Cc1cccc(C(=O)Nc2scc(-c3ccc(Br)cc3)c2C(=O)O)c1,active: 11.6 µM,
CC(=O)c1cccc(NC(=O)C(=O)Nc2cccc3ccccc23)c1,"inconclusive: 9.2 µM [activator, partial curve, poor fit]",
COCCCNC(=O)C[C@H]1C[C@H](C(=O)N2CCCCC2)[C@@]2(CCc3ccccc3)c3[nH]c4cc(-c5ccco5)ccc4c3CCN2C1=O,active: 23.1 µM,
O=C(COc1cccc(C(F)(F)F)c1)Nc1ccc(S(=O)(=O)N2CCCCC2)cc1,"inconclusive: 16.4 µM [falling, single point]",
